Laboratory results: PubChem BioAssay AID743121 (NCATS, 2013)
In all, the deposit lists about 26,000 reagents; below is an unselected part. Of all reagents, 167 (0.63%) were called active. 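Calls are per gene from RSA p-values that are not deposited; an individual active-marked siRNA can sensitise only weakly.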 Unmarked entries are inactive. The numbers tell different reagents against one gene apart.

Aim: 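Genes whose silencing strengthens cell killing by camptothecin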 (primary screen)
Cells: MDA-MB-231 cells, a human breast cancer line
Knock-down reagent: single siRNA against human genes, 20 nM siRNA (0.8 pmol per well)
Time to read-out: 120 h (drug added 48 h after transfection, read 72 h later)
Conditions: camptothecin 20 nM (about EC30) for 72 h; vehicle 0.1% DMSO in parallel plates
Detection: 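Cell viability by ATP luminescence (CellTiter-Glo) as % of non-targeting siRNA wells, and the log2 ratio of viability without drug over viability with camptothecin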
Reading the numbers: log2 vehicle/camptothecin viability: higher = stronger sensitisation to camptothecin; viability with camptothecin and viability without drug: higher = more viable cells
Hit rule: 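Each gene scored by redundant siRNA activity (RSA) over its individual siRNA ratios; a gene is called active at p < 0.001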

| gene symbol | siRNA no. | log2 vehicle/camptothecin viability | viability with camptothecin (% of control) | viability without drug (% of control) |
| --- | --- | --- | --- | --- |
| HSD17B7 (hydroxysteroid 17-beta dehydrogenase 7) | 1 | 0.173 | 86.7 | 97.8 |
| HSD17B7 (hydroxysteroid 17-beta dehydrogenase 7) | 2 | 0.107 | 52.4 | 56.5 |
| HSD17B7 (hydroxysteroid 17-beta dehydrogenase 7) | 3 | -0.417 | 55.8 | 41.8 |
| HSD17B7 (hydroxysteroid 17-beta dehydrogenase 7) | 4 | -0.0391 | 100 | 97.3 |
| HSD17B7 (hydroxysteroid 17-beta dehydrogenase 7) | 5 | 0.11 | 69.9 | 75.4 |
| EML4 (EMAP like 4) | 1 | 0.324 | 78.1 | 97.8 |
| EML4 (EMAP like 4) | 2 | 0.0309 | 92.6 | 94.6 |
| EML4 (EMAP like 4) | 3 | 1.01 | 51.7 | 104 |
| EML4 (EMAP like 4) | 4 | 0.474 | 55.4 | 76.9 |
| RC3H2 (ring finger and CCCH-type domains 2) | 1 | -0.323 | 32.5 | 26 |
| RC3H2 (ring finger and CCCH-type domains 2) | 2 | 0.118 | 66.7 | 72.4 |
| RC3H2 (ring finger and CCCH-type domains 2) | 3 | 0.705 | 22.9 | 37.3 |
| MPP2 (MAGUK p55 scaffold protein 2) | 1 | -0.189 | 71.2 | 62.4 |
| MPP2 (MAGUK p55 scaffold protein 2) | 2 | -0.456 | 23.5 | 17.1 |
| MPP2 (MAGUK p55 scaffold protein 2) | 3 | -0.132 | 84.3 | 76.9 |
| MPP2 (MAGUK p55 scaffold protein 2) | 4 | -0.00628 | 109 | 108 |
| IFNW1 (interferon omega 1) | 1 | -0.432 | 76 | 56.3 |
| IFNW1 (interferon omega 1) | 2 | 0.442 | 31.7 | 43.1 |
| IFNW1 (interferon omega 1) | 3 | -0.0403 | 84.7 | 82.3 |
| DGKD (diacylglycerol kinase delta) | 1 | -0.186 | 71.4 | 62.8 |
| DGKD (diacylglycerol kinase delta) | 2 | -0.044 | 76.7 | 74.4 |
| DGKD (diacylglycerol kinase delta) | 3 | -0.00777 | 88.8 | 88.3 |
| DGKD (diacylglycerol kinase delta) | 4 | 0.161 | 86.2 | 96.4 |

Part of the list above, reformatted.
{"gene symbol": "HSD17B7 (hydroxysteroid 17-beta dehydrogenase 7)", "siRNA no.": 2, "log2 vehicle/camptothecin viability": 0.107, "viability with camptothecin (% of control)": 52.4, "viability without drug (% of control)": 56.5}
{"gene symbol": "HSD17B7 (hydroxysteroid 17-beta dehydrogenase 7)", "siRNA no.": 3, "log2 vehicle/camptothecin viability": -0.417, "viability with camptothecin (% of control)": 55.8, "viability without drug (% of control)": 41.8}
{"gene symbol": "HSD17B7 (hydroxysteroid 17-beta dehydrogenase 7)", "siRNA no.": 4, "log2 vehicle/camptothecin viability": -0.0391, "viability with camptothecin (% of control)": 100, "viability without drug (% of control)": 97.3}
{"gene symbol": "HSD17B7 (hydroxysteroid 17-beta dehydrogenase 7)", "siRNA no.": 5, "log2 vehicle/camptothecin viability": 0.11, "viability with camptothecin (% of control)": 69.9, "viability without drug (% of control)": 75.4}
{"gene symbol": "EML4 (EMAP like 4)", "siRNA no.": 1, "log2 vehicle/camptothecin viability": 0.324, "viability with camptothecin (% of control)": 78.1, "viability without drug (% of control)": 97.8}
{"gene symbol": "EML4 (EMAP like 4)", "siRNA no.": 2, "log2 vehicle/camptothecin viability": 0.0309, "viability with camptothecin (% of control)": 92.6, "viability without drug (% of control)": 94.6}
{"gene symbol": "EML4 (EMAP like 4)", "siRNA no.": 3, "log2 vehicle/camptothecin viability": 1.01, "viability with camptothecin (% of control)": 51.7, "viability without drug (% of control)": 104}
{"gene symbol": "EML4 (EMAP like 4)", "siRNA no.": 4, "log2 vehicle/camptothecin viability": 0.474, "viability with camptothecin (% of control)": 55.4, "viability without drug (% of control)": 76.9}

The results go on:
| gene symbol | siRNA no. | log2 vehicle/camptothecin viability | viability with camptothecin (% of control) | viability without drug (% of control) |
| --- | --- | --- | --- | --- |
| IFNLR1 (interferon lambda receptor 1) | 1 | 0.561 | 53.1 | 78.3 |
| IFNLR1 (interferon lambda receptor 1) | 2 | 0.0336 | 66.4 | 67.9 |
| IFNLR1 (interferon lambda receptor 1) | 3 | 0.121 | 73.9 | 80.4 |
| IFNLR1 (interferon lambda receptor 1) | 4 | 0.0556 | 108 | 112 |
| VHL (von Hippel-Lindau tumor suppressor) | 1 | 0.231 | 67.9 | 79.7 |
| VHL (von Hippel-Lindau tumor suppressor) | 2 | -0.263 | 124 | 103 |
| VHL (von Hippel-Lindau tumor suppressor) | 3 | -0.209 | 89.4 | 77.3 |
| VHL (von Hippel-Lindau tumor suppressor) | 4 | 0.516 | 54.3 | 77.6 |
| NFX1 (nuclear transcription factor, X-box binding 1) | 1 | 0.158 | 77.1 | 86 |
| NFX1 (nuclear transcription factor, X-box binding 1) | 2 | -0.0609 | 46.9 | 45 |
| NFX1 (nuclear transcription factor, X-box binding 1) | 3 | -0.0148 | 85.5 | 84.6 |
| MUC1 (mucin 1, cell surface associated) | 1 | -0.24 | 63.4 | 53.7 |
| MUC1 (mucin 1, cell surface associated) | 2 | -0.0932 | 34.6 | 32.4 |
| MUC1 (mucin 1, cell surface associated) | 3 | -0.245 | 79.2 | 66.8 |
| MUC1 (mucin 1, cell surface associated) | 4 | -0.359 | 67.1 | 52.3 |
| USP6 (ubiquitin specific peptidase 6) | 1 | -0.54 | 83 | 57.1 |
| USP6 (ubiquitin specific peptidase 6) | 2 | 0.0763 | 58.2 | 61.4 |
| USP6 (ubiquitin specific peptidase 6) | 3 | 0.0329 | 82.3 | 84.2 |
| FBXO42 (F-box protein 42) | 1 | -0.638 | 88.5 | 56.9 |
| FBXO42 (F-box protein 42) | 2 | -0.282 | 98.6 | 81.1 |
| FBXO42 (F-box protein 42) | 3 | -0.196 | 66.4 | 57.9 |
| FBXO42 (F-box protein 42) | 4 | -0.187 | 59.6 | 52.3 |
| HSD17B10 (hydroxysteroid 17-beta dehydrogenase 10) | 1 | -0.0667 | 71.8 | 68.5 |
| HSD17B10 (hydroxysteroid 17-beta dehydrogenase 10) | 2 | -0.0815 | 87.7 | 82.9 |
| HSD17B10 (hydroxysteroid 17-beta dehydrogenase 10) | 3 | -0.434 | 84.3 | 62.4 |
| HSD17B10 (hydroxysteroid 17-beta dehydrogenase 10) | 4 | -0.0669 | 77.6 | 74 |
| SERPINA7 (serpin family A member 7) | 1 | -0.107 | 75.7 | 70.3 |
| SERPINA7 (serpin family A member 7) | 2 | -0.215 | 103 | 88.8 |
| SERPINA7 (serpin family A member 7) | 3 | 0.141 | 80.4 | 88.7 |
| CD19 (CD19 molecule) | 1 | 0.00919 | 92.6 | 93.2 |
| CD19 (CD19 molecule) | 2 | 0.00371 | 49.2 | 49.3 |
| CD19 (CD19 molecule) | 3 | -0.712 | 80 | 48.8 |
| CHRNB2 (cholinergic receptor nicotinic beta 2 subunit) | 1 | -0.118 | 44.5 | 41 |
| CHRNB2 (cholinergic receptor nicotinic beta 2 subunit) | 2 | 0.108 | 73.1 | 78.8 |
| CHRNB2 (cholinergic receptor nicotinic beta 2 subunit) | 3 | -0.417 | 94 | 70.4 |
| RPS19 (ribosomal protein S19) | 1 | 1.53 | 20.5 | 58.9 |
| RPS19 (ribosomal protein S19) | 2 | -0.0561 | 79.9 | 76.9 |
| RPS19 (ribosomal protein S19) | 3 | -0.0766 | 99.8 | 94.7 |
| KIFC3 (kinesin family member C3) | 1 | -0.426 | 104 | 77.7 |
| KIFC3 (kinesin family member C3) | 2 | 1.41 | 12.6 | 33.3 |
| KIFC3 (kinesin family member C3) | 3 | -0.466 | 82.3 | 59.6 |
| KIFC3 (kinesin family member C3) | 4 | 0.176 | 46.3 | 52.3 |
| ROBO2 (roundabout guidance receptor 2) | 1 | -0.232 | 21.5 | 18.3 |
| ROBO2 (roundabout guidance receptor 2) | 2 | -0.296 | 54.5 | 44.4 |
| ROBO2 (roundabout guidance receptor 2) | 3 | 0.0881 | 39.1 | 41.6 |
| ROBO2 (roundabout guidance receptor 2) | 4 | -0.136 | 94.3 | 85.8 |
